These are yes or no findings as the source states them, for the method shown. Binding seen in cells or lysates may run through a third protein. Some results given as binding are weak or reduced against the parent protein; the word gives no strength.
Tests used:
[1] = biological target: ΔF508-cystic fibrosis transmembrane receptor (human) (UniProt P13569); experiment: co-immunoprecipitation, IP CFTR from IB3-1 cells, immunoblot VCP (FIG. 4A)
[2] = biological target: ΔF508-cystic fibrosis transmembrane receptor (human) (UniProt P13569); experiment: co-immunoprecipitation, IP CFTR from IB3-1 cells, immunoblot VCP (FIG. 3B, 3C)
[3] = biological target: ΔF508-cystic fibrosis transmembrane receptor (human) (UniProt P13569); experiment: co-immunoprecipitation from IB3-1 total protein extract, IP CFTR, immunoblot VCP (FIG. 4A)
[4] = biological target: ΔF508-cystic fibrosis transmembrane receptor (human) (UniProt P13569); experiment: co-immunoprecipitation, IP CFTR (anti-CFTR 169) from IB3-1 total protein extract, immunoblot VCP
[5] = biological target: ΔF508-cystic fibrosis transmembrane receptor (human) (UniProt P13569); experiment: co-immunoprecipitation from bronchial brushings of ΔF508 CF subjects, IP CFTR, immunoblot VCP (FIG. 4B)

Chains of the proteins cited; added tags and fusions are not shown. Lines headed by an entry give the natural chain unless they say otherwise; changes in a name come on top. A line that says so, or that is headed by a name, gives the form on record, which may keep a tag or linker. Residues count along the entry.
ΔF508-cystic fibrosis transmembrane receptor (P13569, form named): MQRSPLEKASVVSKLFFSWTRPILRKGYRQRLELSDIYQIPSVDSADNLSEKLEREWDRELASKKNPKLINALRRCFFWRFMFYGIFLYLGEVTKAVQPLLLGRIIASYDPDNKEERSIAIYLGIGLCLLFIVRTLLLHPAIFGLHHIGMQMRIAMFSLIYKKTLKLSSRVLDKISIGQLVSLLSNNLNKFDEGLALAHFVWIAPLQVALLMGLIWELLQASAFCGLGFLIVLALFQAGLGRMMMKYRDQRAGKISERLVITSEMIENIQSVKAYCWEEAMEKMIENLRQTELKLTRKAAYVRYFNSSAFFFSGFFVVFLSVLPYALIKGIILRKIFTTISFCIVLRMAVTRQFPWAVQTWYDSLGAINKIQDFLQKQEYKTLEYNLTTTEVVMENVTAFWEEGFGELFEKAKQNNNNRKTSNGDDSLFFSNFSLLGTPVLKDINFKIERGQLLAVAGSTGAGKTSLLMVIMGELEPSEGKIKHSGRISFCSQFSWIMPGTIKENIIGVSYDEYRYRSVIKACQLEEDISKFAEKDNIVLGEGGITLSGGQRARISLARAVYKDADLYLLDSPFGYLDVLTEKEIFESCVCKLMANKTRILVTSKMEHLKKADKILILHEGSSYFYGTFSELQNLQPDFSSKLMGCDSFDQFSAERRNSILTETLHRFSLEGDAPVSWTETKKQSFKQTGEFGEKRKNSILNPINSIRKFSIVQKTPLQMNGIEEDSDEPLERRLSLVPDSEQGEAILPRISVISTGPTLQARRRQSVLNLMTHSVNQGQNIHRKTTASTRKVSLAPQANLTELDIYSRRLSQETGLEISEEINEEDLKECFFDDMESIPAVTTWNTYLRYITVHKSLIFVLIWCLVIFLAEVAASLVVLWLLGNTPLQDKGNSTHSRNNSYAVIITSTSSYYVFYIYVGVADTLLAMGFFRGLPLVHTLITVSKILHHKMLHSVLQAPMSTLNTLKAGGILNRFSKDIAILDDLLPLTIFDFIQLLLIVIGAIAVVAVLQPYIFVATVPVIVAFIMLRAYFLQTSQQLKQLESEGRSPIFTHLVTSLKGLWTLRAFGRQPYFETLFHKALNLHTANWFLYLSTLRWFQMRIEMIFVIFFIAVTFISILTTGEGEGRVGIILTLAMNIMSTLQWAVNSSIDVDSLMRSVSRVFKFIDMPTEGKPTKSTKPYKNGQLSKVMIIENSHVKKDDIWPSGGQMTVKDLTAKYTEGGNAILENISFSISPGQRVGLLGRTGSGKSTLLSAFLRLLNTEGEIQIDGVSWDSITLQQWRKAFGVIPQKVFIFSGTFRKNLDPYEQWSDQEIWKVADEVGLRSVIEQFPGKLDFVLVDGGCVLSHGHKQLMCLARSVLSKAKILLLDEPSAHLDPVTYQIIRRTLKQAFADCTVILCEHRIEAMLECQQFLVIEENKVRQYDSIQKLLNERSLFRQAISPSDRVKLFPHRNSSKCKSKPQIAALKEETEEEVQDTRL
UniProt P55072, residues 2-806: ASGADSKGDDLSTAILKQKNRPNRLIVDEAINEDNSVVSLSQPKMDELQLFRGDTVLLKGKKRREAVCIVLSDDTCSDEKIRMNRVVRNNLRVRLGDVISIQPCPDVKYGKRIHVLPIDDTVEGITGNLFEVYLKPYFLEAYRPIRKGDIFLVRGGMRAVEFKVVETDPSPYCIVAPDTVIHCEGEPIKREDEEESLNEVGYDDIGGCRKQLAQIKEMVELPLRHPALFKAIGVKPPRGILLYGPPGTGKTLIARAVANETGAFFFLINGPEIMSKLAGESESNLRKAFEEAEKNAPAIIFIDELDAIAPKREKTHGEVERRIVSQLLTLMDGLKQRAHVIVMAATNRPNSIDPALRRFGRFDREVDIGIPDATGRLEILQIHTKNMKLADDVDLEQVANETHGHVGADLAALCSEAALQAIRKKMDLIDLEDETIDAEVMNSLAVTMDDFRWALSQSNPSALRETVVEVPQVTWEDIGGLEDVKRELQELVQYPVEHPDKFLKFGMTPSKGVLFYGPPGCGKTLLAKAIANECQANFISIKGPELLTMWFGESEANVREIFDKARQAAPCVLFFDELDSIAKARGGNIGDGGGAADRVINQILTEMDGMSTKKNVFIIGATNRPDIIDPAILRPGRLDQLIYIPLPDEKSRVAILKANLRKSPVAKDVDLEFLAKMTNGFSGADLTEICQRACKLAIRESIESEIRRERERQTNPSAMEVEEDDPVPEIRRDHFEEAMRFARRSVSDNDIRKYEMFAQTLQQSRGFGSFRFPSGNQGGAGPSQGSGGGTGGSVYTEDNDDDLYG

Measured: binding

p97/valosin-containing protein (from UniProt P55072 2-806) (enzyme)
binds: all assays above

Source: patent publication US20100222408A1 (Johns Hopkins, published 2010)
